These results are taken from patent publication US20260166168A1 (MEDILINK THERAPEUTICS SUZHOU, published 2026).

In assay [1] the target is recombinant extracellular domain protein of cynomolgus monkey DLL3 (cyno.DLL3-ECD-His) (cynomolgus monkey). As to the kind of experiment: BLI (ForteBio).
Assay [2] has the same target. Description: ELISA, coated antigen. Background: An ELISA detects its analyte on a solid surface through an enzyme-linked reagent.

Results are given in words; binding and its absence hold for the method and conditions named. Some entries that bind do so weakly or less than the wild type.

B1: 59B10D3-Hz antibody (antibody, human IgG1, kappa, V domains shown)
VH: EVQLVESGGGLVQPGGSLRLSCAASGFTFSDAWMDWVRQAPGKGLEWVAEIRNKANNHATYYVDSVKGRFTISRDDAKNSVYLQMNSLRAEDTAVYYCTRNNYGSTWTYYAMDYWGQGTLVTVSS
VL: DIQMTQSPSSLSASVGDRVTITCRASQDISNYLNWYQQKPGKAVKLLIYYTSRLHSGVPSRFSGSGSGTDYTLTISSLQPEDFATYYCQQGYTLPLTFGQGTKVEIKR
notes: Humanized; also called 59B10D3-hz1
B1: the binding entry in assay [1] and in assay [2] was “binds” throughout.

B2: 6F11C10-Hz1 antibody (antibody, human IgG1, kappa, V domains shown)
VH: EVQLVQSGAEVKKPGASVKVSCKASGFTFTDYYMHWVRQAPGQSLEWMGLVYPYNGDISYAQKFQGRVTLTVDTSISTAYMELSRLRSDDTAVYYCARQGNYVNNAIDYWGQGTLVTVSS
VL: DIQMTQSPSSLSASVGDRVTITCKASQNVGNIIAWYQQKPGKSPKALIYLASYRYSGVPSRFSGSGSGTDFTLTISSLQPEDVATYFCQQYSDSPYTFGQGTKVEIKR
notes: Humanized IgG1/kappa
B2: the binding result in assay [1] and in assay [2] was “binds” each time.

B3: 6F11C10-Hz2 antibody (antibody, human IgG1, kappa, V domains shown)
VH: EVQLVQSGAEVKKPGASVKVSCKASGFTFTDYYMHWVRQAPGQSLEWMGLVYPYSGDISYAQKFQGRVTLTVDTSISTAYMELSRLRSDDTAVYYCARQGNYVNNAIDYWGQGTLVTVSS
VL: DIQMTQSPSSLSASVGDRVTITCKASQNVGNIIAWYQQKPGKSPKALIYLASYRYSGVPSRFSGSGSGTDFTLTISSLQPEDVATYFCQQYSDSPYTFGQGTKVEIKR
notes: Optimized humanized IgG1/kappa; also called 6FC11C0-Hz2; 6F11C10-Hz2-biotin
Consider B3, for which the binding result in assay [2] is given as “binds”.

B4: 10F2F3-Hz antibody (antibody, human IgG1, kappa, V domains shown)
VH: QVQLVESGAEVKKPGSSVKVSCKASGYAFSSHWVNWVRQAPGQGLEWMGQIYPGNGDTNYAQKFQGRVTLTADKSTSTAYMELSSLTSEDTAVYFCARWFAYWGQGTLVTVSS
VL: DIQMTQSPSSLSASVGDRVTITCKSSQSLLDGGNQKNYLAWYQQKPGKPPKLLVYFASIRESGVPSRFSGSGSGTDFTLTISSLQPEDFATYYCQQHYNTPWTFGQGTKVEIKR
notes: Humanized
Consider B4, for which the binding entry in assay [1] and in assay [2] was “binds” throughout.

B5: 55C11E4-Hz1 (antibody, human IgG1, kappa, V domains shown)
VH: EVQLVQSGAEVKKPGASVKVSCKASGYTFTDYYMNWVRQAPGQRLEWMGVINPYNGGTNYSQKFQGRVTLTVDKSASTAYMELSSLRSEDTAVYYCARDSNYVGLLDYWGQGTLVTVSS
VL: DIVLTQSPATLSLSPGERATLSCRASQSISNNLHWYQQKPGQAPRLLIKYASQSISGIPARFSGSGSGPDFTLTISSLEPEDFAVYFCQQSNSWPYTFGQGTKVEIKR
notes: Humanized IgG1/kappa
For B5, the binding entry in assay [1] and in assay [2] was “binds” in each case.

B6: 55C11E4-Hz2 (antibody, human IgG1, kappa, V domains shown)
VH: EVQLVQSGAEVKKPGASVKVSCKASGYTFTDYYMNWVRQAPGQRLEWMGVINPYNGGTNYAQKFQGRVTLTVDKSASTAYMELSSLRSEDTAVYYCARDSNYVGLLDYWGQGTLVTVSS
VL: DIVLTQSPATLSLSPGERATLSCRASQSISNNLHWYQQKPGQAPRLLIKYASQSISGIPARFSGSGSGPDFTLTISSLEPEDFAVYFCQQSNSWPYTFGQGTKVEIKR
notes: Optimized humanized IgG1/kappa; also called 55C11E4-Hz2-biotin
In the case of B6, the binding entry in assay [2] is “binds”.

B7: 87F7F10-Hz (antibody, human IgG1, kappa, V domains shown)
VH: QVQLQESGPGLVKPSETLSLTCTVSGYSITSDFYWNWIRQPPGKGLEWIGYITYDGSTNYNPSLKSRVTISRDTSKNQFSLKLSSVTAADTAVYYCVYGDFNRHAMDYWGQGTLVTVSS
VL: DIVMTQSPDSLAVSLGERATINCRSSQSLFNSRTRKNYLAWYQQKPGQPPKVLIYWASTRESGVPDRFSGSGSGTDFTLTISSLQAEDVAVYYCEQSFYLFTFGQGTKVEIKR
notes: Humanized; also called 87F7F10-hz1
As for B7, the binding entry in assay [1] and in assay [2] was “binds” throughout.
